According to patent publication US9517222B2, “Method for the treatment of senile dementia of the Alzheimer's type” (Phenomenome Discoveries Inc., priority 2007, dated 2016):
Where no unit stands, none is given here, and values compare only within one read-out.

Tests used:
[1] = Serum ethanolamine phospholipid levels in human cohorts (dementia severity, post-mortem pathology, age) by flow-injection MS/MS
[2] = Serum ethanolamine phospholipid ratios to PtdEt 16:0/18:0 (M01) in human cohorts
[3] = serum, females, post mortem SDAT
[4] = serum, females, post mortem control

CC/C=C\C/C=C\C/C=C\C/C=C\C/C=C\C/C=C\CCC(=O)OC(COCCCCCCCCCCCCCCCC)COP(=O)(O)OCCN (centres unmarked) [Metabolite M09, Plasmanyl 16:0/22:6]
Ratio of serum levels ([1]; AD, All to CN, Male): 0.658
Ratio of serum levels ([1]; ADAS 5-19 to CN, Male): 0.731
Ratio of serum levels ([1]; ADAS 20-39 to 5-19, Male): 0.895
Ratio of serum levels ([1]; ADAS 20-39 to CN, Male): 0.654
Ratio of serum levels ([1]; ADAS 40-70 to 5-19, Male): 0.646
Ratio of serum levels ([1]; ADAS 40-70 to 20-39, Male): 0.721
Ratio of serum levels ([1]; ADAS 40-70 to CN, Male): 0.472
Serum level, Mean ([1]; Cognitive Normal, Female): 0.019
Average serum level, Mean ([1]; Cognitive Normal, Male): 0.022
Serum level, Mean ([1]; Post Mortem Ctl, Male): 0.006
Serum level, Mean ([1]; Post Mortem SDAT Male): 0.003
Ratio of serum levels ([1]; Post mortem SDAT vs Control, Male): 0.269
Serum level, Mean ([1]; SDAT, ADAS 5-19, Female): 0.015
Average serum level, Mean ([1]; SDAT, ADAS 5-19, Male): 0.016
Serum level, Mean ([1]; SDAT, ADAS 20-39, Female): 0.014
Average serum level, Mean ([1]; SDAT, ADAS 20-39, Male): 0.015
Serum level, Mean ([1]; SDAT, ADAS 40-70, Female): 0.012
Average serum level, Mean ([1]; SDAT, ADAS 40-70, Male): 0.011
Serum level, Mean ([1]; SDAT_all, Female): 0.013
Average serum level, Mean ([1]; SDAT_all, Male): 0.015
Ratio, ADAS 5-19 to CN, Female ([1]; serum level ratio, females, ADAS 5-19 vs CN): 0.777
Ratio, ADAS 20-39 to 5-19, Female ([1]; serum level ratio, females, ADAS 20-39 vs ADAS 5-19): 0.903
Ratio, ADAS 20-39 to CN, Female ([1]; serum level ratio, females, ADAS 20-39 vs CN): 0.702
Ratio, ADAS 40-70 to 5-19, Female ([1]; serum level ratio, females, ADAS 40-70 vs ADAS 5-19): 0.802
Ratio, ADAS 40-70 to 20-39, Female ([1]; serum level ratio, females, ADAS 40-70 vs ADAS 20-39): 0.889
Ratio, ADAS 40-70 to CN, Female ([1]; serum level ratio, females, ADAS 40-70 vs CN): 0.624
Ratio, 50-59 vs. 40-49, Female ([1]; serum level ratio, females, age 50-59 vs 40-49): 0.934
Ratio, 60-69 vs. 40-49, Female ([1]; serum level ratio, females, age 60-69 vs 40-49): 0.784
Ratio, 70+ vs. 40-49, Female ([1]; serum level ratio, females, age 70+ vs 40-49): 0.912
Ratio, AD, All to CN, Female ([1]; serum level ratio, females, all AD vs cognitively normal): 0.696
Ratio, Autopsy AD vs. Control, Female ([1]; serum level ratio, females, autopsy AD vs control): 0.566
Ratio, 50-59 vs. 40-49, Male ([1]; serum level ratio, males, age 50-59 vs 40-49): 1.443
Ratio, 60-69 vs. 40-49, Male ([1]; serum level ratio, males, age 60-69 vs 40-49): 1.473
Ratio, 70+ vs. 40-49, Male ([1]; serum level ratio, males, age 70+ vs 40-49): 1.701
Mean serum level, Age Ctl, 30-39, Female ([1]; serum, females, age 30-39): 0.021
Mean serum level, Age Ctl, 40-49, Female ([1]; serum, females, age 40-49): 0.021
Mean serum level, Age Ctl, 50-59, Female ([1]; serum, females, age 50-59): 0.020
Mean serum level, Age Ctl, 60-69, Female ([1]; serum, females, age 60-69): 0.017
Mean serum level, Age Ctl, 70+, Female ([1]; serum, females, age 70+): 0.019
Mean serum level, Post Mortem SDAT, Female [1, 3]: 0.002
Mean serum level, Post Mortem Ctl, Female [1, 4]: 0.005
Mean serum level, Age Ctl, 30-39, Male ([1]; serum, males, age 30-39): 0.019
Mean serum level, Age Ctl, 40-49, Male ([1]; serum, males, age 40-49): 0.013
Mean serum level, Age Ctl, 50-59, Male ([1]; serum, males, age 50-59): 0.019
Mean serum level, Age Ctl, 60-69, Male ([1]; serum, males, age 60-69): 0.019
Mean serum level, Age Ctl, 70+, Male ([1]; serum, males, age 70+): 0.022
Ratio of ethanolamine phospholipid ratios to M01 between cohorts ([2]; AD, All to CN, Male): 0.645
Ratio of ethanolamine phospholipid ratios to M01 between cohorts ([2]; ADAS 5-19 to CN, Male): 0.713
Ratio of ethanolamine phospholipid ratios to M01 between cohorts ([2]; ADAS 20-39 to CN, Male): 0.654
Ratio of ethanolamine phospholipid ratios to M01 between cohorts ([2]; ADAS 40-70 to CN, Male): 0.476
Average serum ethanolamine phospholipid ratio to M01, Mean ([2]; Cognitive Normal, Male, serum): 0.195
Average serum ethanolamine phospholipid ratio to M01, Mean ([2]; SDAT, ADAS 5-19, Male, serum): 0.139
Average serum ethanolamine phospholipid ratio to M01, Mean ([2]; SDAT, ADAS 20-39, Male, serum): 0.127
Average serum ethanolamine phospholipid ratio to M01, Mean ([2]; SDAT, ADAS 40-70, Male, serum): 0.093
Average serum ethanolamine phospholipid ratio to M01, Mean ([2]; SDAT_all, Male, serum): 0.126
Ethanolamine Phospholipid Ratio to M01, Mean, Age Ctl, 30-39, Female ([2]; human serum, females aged 30-39): 0.204
Ethanolamine Phospholipid Ratio to M01, Mean, Age Ctl, 40-49, Female ([2]; human serum, females aged 40-49): 0.194
Ethanolamine Phospholipid Ratio to M01, Mean, Age Ctl, 50-59, Female ([2]; human serum, females aged 50-59): 0.197
Ratio of Ethanolamine Phospholipid Ratio to M01, 50-59 vs. 40-49, Female ([2]; human serum, females aged 50-59 vs. females aged 40-49): 1.016
Ethanolamine Phospholipid Ratio to M01, Mean, Age Ctl, 60-69, Female ([2]; human serum, females aged 60-69): 0.139
Ratio of Ethanolamine Phospholipid Ratio to M01, 60-69 vs. 40-49, Female ([2]; human serum, females aged 60-69 vs. females aged 40-49): 0.717
Ethanolamine Phospholipid Ratio to M01, Mean, Age Ctl, 70+_Female ([2]; human serum, females aged 70+): 0.163
Ratio of Ethanolamine Phospholipid Ratio to M01, 70+ vs. 40-49, Female ([2]; human serum, females aged 70+ vs. females aged 40-49): 0.841
Ratio of Ethanolamine Phospholipid Ratio to M01, 50-59 vs. 40-49, Male ([2]; human serum, males aged 50-59 vs. males aged 40-49): 1.404
Ratio of Ethanolamine Phospholipid Ratio to M01, 60-69 vs. 40-49, Male ([2]; human serum, males aged 60-69 vs. males aged 40-49): 1.243
Ratio of Ethanolamine Phospholipid Ratio to M01, 70+ vs. 40-49, Male ([2]; human serum, males aged 70+ vs. males aged 40-49): 1.391
Ratio of ethanolamine phospholipid ratio to M01, ADAS 5-19 to CN, Female ([2]; serum, females, ADAS 5-19 vs cognitive normal): 0.837
Ratio of ethanolamine phospholipid ratio to M01, ADAS 20-39 to 5-19, Female ([2]; serum, females, ADAS 20-39 vs ADAS 5-19): 0.884
Ratio of ethanolamine phospholipid ratio to M01, ADAS 20-39 to CN, Female ([2]; serum, females, ADAS 20-39 vs cognitive normal): 0.740
Ratio of ethanolamine phospholipid ratio to M01, ADAS 40-70 to 5-19, Female ([2]; serum, females, ADAS 40-70 vs ADAS 5-19): 0.738
Ratio of ethanolamine phospholipid ratio to M01, ADAS 40-70 to 20-39, Female ([2]; serum, females, ADAS 40-70 vs ADAS 20-39): 0.835
Ratio of ethanolamine phospholipid ratio to M01, ADAS 40-70 to CN, Female ([2]; serum, females, ADAS 40-70 vs cognitive normal): 0.618
Ethanolamine phospholipid ratio to M01, Mean, SDAT, ADAS 5-19, Female ([2]; serum, females, SDAT ADAS 5-19): 0.140
Ethanolamine phospholipid ratio to M01, Mean, SDAT, ADAS 20-39, Female ([2]; serum, females, SDAT ADAS 20-39): 0.123
Ethanolamine phospholipid ratio to M01, Mean, SDAT, ADAS 40-70, Female ([2]; serum, females, SDAT ADAS 40-70): 0.103
Ratio of ethanolamine phospholipid ratio to M01, AD, All to CN, Female ([2]; serum, females, all AD vs cognitive normal): 0.724
Ethanolamine phospholipid ratio to M01, Mean, SDAT_all Female ([2]; serum, females, all SDAT): 0.121
Ratio of ethanolamine phospholipid ratio to M01, Autopsy AD vs. Control, Female ([2]; serum, females, autopsy AD vs post mortem control): 0.725
Ethanolamine phospholipid ratio to M01, Mean, Cognitive Normal, Female ([2]; serum, females, cognitive normal): 0.167
Ethanolamine phospholipid ratio to M01, Mean, Post Mortem SDAT Female [2, 3]: 0.024
Ethanolamine phospholipid ratio to M01, Mean, Post Mortem Ctl, Female [2, 4]: 0.033
Ratio of ethanolamine phospholipid ratio to M01, ADAS 20-39 to 5-19, Male ([2]; serum, males, SDAT ADAS 20-39 vs ADAS 5-19): 0.917
Ratio of ethanolamine phospholipid ratio to M01, ADAS 40-70 to 5-19, Male ([2]; serum, males, SDAT ADAS 40-70 vs ADAS 5-19): 0.668
Ratio of ethanolamine phospholipid ratio to M01, ADAS 40-70 to 20-39, Male ([2]; serum, males, SDAT ADAS 40-70 vs ADAS 20-39): 0.728
Ethanolamine phospholipid ratio to M01, Mean, Age Ctl, 30-39, Male ([2]; serum, males, age control 30-39): 0.161
Ethanolamine phospholipid ratio to M01, Mean, Age Ctl, 40-49, Male ([2]; serum, males, age control 40-49): 0.124
Ethanolamine phospholipid ratio to M01, Mean, Age Ctl, 50-59, Male ([2]; serum, males, age control 50-59): 0.173
Ethanolamine phospholipid ratio to M01, Mean, Age Ctl, 60-69, Male ([2]; serum, males, age control 60-69): 0.154
Ethanolamine phospholipid ratio to M01, Mean, Age Ctl, 70+_Male ([2]; serum, males, age control 70+): 0.172
Ethanolamine phospholipid ratio to M01, Mean, Post Mortem SDAT Male ([2]; serum, males, post mortem SDAT): 0.018
Ratio of ethanolamine phospholipid ratio to M01, SDAT vs Control (post mortem, males) ([2]; serum, males, post mortem SDAT vs post mortem control): 0.341
Ethanolamine phospholipid ratio to M01, Mean, Post Mortem Ctl, Male ([2]; serum, males, post mortem control): 0.052
